Experimental data taken from PubChem BioAssay AID220 (DTP/NCI, 2004).
The list shows only some results of the screen, not a fair sample: it is rich in T/C values a quarter to a half above the control, in often repeated tests (any T/C) and in doses without a T/C. Other doses and runs of a compound stand elsewhere. T/C: endpoint of the treated group in % of that of the vehicle group. Schedules are NCI's codes, taken here to give the interval after Q, in days (D) or hours (H), and the number of doses after X. Some T/C values carry the count of animals alive at the toxicity check (mostly the fifth day); where none is given, no animal had died by that day. Some entries give survivors of the animals treated and no T/C: the source files T/C as zero there, which appears to mark a toxic dose or a test without result, not a measured value. Survivors were counted at the toxicity check, usually on the fifth day, unless a day is given; later deaths do not show.

System: CD8F1 mice, subcutaneous mammary adenocarcinoma, T/C%
Test: NCI In Vivo Anticancer Drug Screen. Data for tumor model Mammary Adenocarcinoma CD8F1 (subcutaneous) in CD8F1
Conditions: higher T/C = larger tumour
Summary of the method: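 Mice carrying transplanted tumors received test compound, and survival or tumor size was recorded. Each value is the treated-group measurement divided by the corresponding measurement in vehicle-dosed controls.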

[1] = T/C endpoint: median tumor weight change, dose: 125.0 mg/kg/injection, schedule: Q01DX001 (ip), vehicle: saline
[2] = T/C endpoint: median tumor weight change, dose: 250.0 mg/kg/injection, schedule: Q01DX001 (ip), vehicle: saline
[3] = T/C endpoint: median tumor weight change, dose: 250.0 mg/kg/injection, schedule: Q01DX001 (ip), vehicle: Klucel (hydroxypropylcellulose) (HPC)
[4] = T/C endpoint: median tumor weight change, dose: 1000.0 mg/kg/injection, schedule: Q01DX001 (ip), vehicle: saline with Tween-80
[5] = T/C endpoint: median tumor weight change, dose: 500.0 mg/kg/injection, schedule: Q01DX001 (ip), vehicle: saline with Tween-80

## O=C(O)C(O)C(O)C1[O][Sb][O]C1C(=O)O (stereo unspecified)
[1]
  survivor count: 4 of 10 on day 27
[2]
  survivor count: 0 of 10 on day 27
T/C endpoint: median tumor weight change, dose: 500.0 mg/kg/injection, schedule: Q01DX001 (ip), vehicle: saline
  survivor count: 0 of 10 on day 27

## Nc1ncnc2c1ncn2C1OC(CO)C(O)C1O (stereo unspecified)
T/C endpoint: median tumor weight (est.), dose: 32.0 mg/kg/injection, schedule: Q07DX005 (ip), vehicle: Klucel (hydroxypropylcellulose) (HPC), evaluated on day 32
  T/C: 130 % of control [9 of 10 alive]
T/C endpoint: median tumor weight (est.), dose: 64.0 mg/kg/injection, schedule: Q07DX005 (ip), vehicle: Klucel (hydroxypropylcellulose) (HPC), evaluated on day 32
  T/C: 133 % of control
T/C endpoint: median tumor weight (est.), dose: 128.0 mg/kg/injection, schedule: Q07DX005 (ip), vehicle: Klucel (hydroxypropylcellulose) (HPC), evaluated on day 30
  T/C: 134 % of control

## O=c1cnn(C2OC(CO)C(O)C2O)c(=O)[nH]1 (stereo unspecified)
T/C endpoint: mean tumor weight, dose: 500.0 mg/kg/injection, schedule: Q07DX004 (ip), vehicle: saline, evaluated on day 27
  T/C: 142 % of control
T/C endpoint: median tumor weight (est.), dose: 1600.0 mg/kg/injection, schedule: Q07DX005 (ip), vehicle: saline, evaluated on day 30
  T/C: 126 % of control

## NC(Cc1ccc(N(CCCl)CCCl)cc1)C(=O)O (stereo unspecified)
T/C endpoint: median tumor weight (est.), dose: 32.0 mg/kg/injection, schedule: Q07DX005 (ip), vehicle: Klucel (hydroxypropylcellulose) (HPC)
  survivor count: 0 of 10 on day 32
T/C endpoint: median tumor weight (est.), dose: 64.0 mg/kg/injection, schedule: Q07DX005 (ip), vehicle: Klucel (hydroxypropylcellulose) (HPC)
  survivor count: 0 of 10 on day 32

## CC[n+]1c(-c2ccccc2)c2cc(N)ccc2c2ccc(N)cc21
T/C endpoint: median tumor weight (est.), dose: 5.0 mg/kg/injection, schedule: Q07DX005 (ip), vehicle: water, evaluated on day 32
  T/C: 135 % of control

## Cc1c2ccccc2c(C)c2c1cc(C(=O)O)c1ccccc12
T/C endpoint: median tumor weight change, dose: 25.0 mg/kg/injection, schedule: Q01DX001 (ip), vehicle: sodium bicarbonate, evaluated on day 28
  T/C: 129 % of control

## CC(=O)OCC1OC([S-])C(OC(C)=O)C(OC(C)=O)C1OC(C)=O.CC[PH+](CC)CC.CC[PH+](CC)CC.[Au].[Au] (stereo unspecified)
T/C endpoint: median tumor weight change, dose: 25.0 mg/kg/injection, schedule: Q01DX001 (ip), vehicle: Klucel (hydroxypropylcellulose) (HPC)
  survivor count: 0 of 10 on day 31
T/C endpoint: median tumor weight change, dose: 50.0 mg/kg/injection, schedule: Q01DX001 (ip), vehicle: Klucel (hydroxypropylcellulose) (HPC)
  survivor count: 1 of 10 on day 31
T/C endpoint: median tumor weight change, dose: 100.0 mg/kg/injection, schedule: Q01DX001 (ip), vehicle: Klucel (hydroxypropylcellulose) (HPC)
  survivor count: 4 of 10 on day 31

## O=C([CH-]C(=O)C(F)(F)F)c1ccccc1.O=C([CH-]C(=O)C(F)(F)F)c1ccccc1.O=C([CH-]C(=O)C(F)(F)F)c1ccccc1.O=C([CH-]C(=O)C(F)(F)F)c1ccccc1.[Eu+3].c1ccncc1
T/C endpoint: median tumor weight (est.), dose: 200.0 mg/kg/injection, schedule: Q07DX005 (ip), vehicle: Klucel (hydroxypropylcellulose) (HPC), evaluated on day 30
  T/C: 131 % of control [9 of 10 alive]

## COc1cccc2c1C(=O)c1c(O)c3c(c(O)c1C2=O)C[C@@](O)(/C(C)=N\NC(=O)CO)C[C@@H]3OC1CC(N)C(O)C(C)O1 (stereo partly specified)
T/C endpoint: median tumor weight (est.), dose: 8.0 mg/kg/injection, schedule: Q07DX005 (ip), vehicle: saline
  survivor count: 1 of 10

## C=C(Cl)C(=NC(C)(C)C)Nc1ccccc1C
T/C endpoint: median tumor weight change, dose: 125.0 mg/kg/injection, schedule: Q01DX001 (ip), vehicle: Klucel (hydroxypropylcellulose) (HPC)
  survivor count: 3 of 10 on day 36
[3]
  survivor count: 0 of 10 on day 36
T/C endpoint: median tumor weight change, dose: 500.0 mg/kg/injection, schedule: Q01DX001 (ip), vehicle: Klucel (hydroxypropylcellulose) (HPC)
  survivor count: 1 of 10 on day 36

## CN(C)CCCNc1c2ccccc2nc2cccc([N+](=O)[O-])c12
T/C endpoint: median tumor weight (est.), dose: 0.12 mg/kg/injection, schedule: Q07DX004 (ip), vehicle: saline
  survivor count: 6 of 10
T/C endpoint: median tumor weight (est.), dose: 31.0 micrograms/kg/injection, schedule: Q07DX005 (ip), vehicle: saline, evaluated on day 30
  T/C: 128 % of control
T/C endpoint: median tumor weight (est.), dose: 62.0 micrograms/kg/injection, schedule: Q07DX005 (ip), vehicle: saline, evaluated on day 30
  T/C: 134 % of control
T/C endpoint: median tumor weight (est.), dose: 125.0 micrograms/kg/injection, schedule: Q07DX005 (ip), vehicle: saline, evaluated on day 30
  T/C: 140 % of control
T/C endpoint: median tumor weight (est.), dose: 250.0 micrograms/kg/injection, schedule: Q07DX005 (ip), vehicle: saline
  survivor count: 0 of 10 on day 30
T/C endpoint: median tumor weight (est.), dose: 500.0 micrograms/kg/injection, schedule: Q07DX005 (ip), vehicle: saline
  survivor count: 0 of 10 on day 30

## CC[C@H]1CN2CCc3cc(OC)c(OC)cc3[C@@H]2C[C@@H]1C[C@H]1NCCc2cc(OC)c(OC)cc21
T/C endpoint: mean tumor weight, dose: 0.88 mg/kg/injection, schedule: Q07DX005 (ip), vehicle: saline, evaluated on day 31
  T/C: 135 % of control
T/C endpoint: median tumor weight (est.), dose: 14.0 mg/kg/injection, schedule: Q07DX005 (ip), vehicle: saline, evaluated on day 30
  T/C: 146 % of control

## O=CC=O
T/C endpoint: median tumor weight (est.), dose: 400.0 mg/kg/injection, schedule: Q07DX005 (ip), vehicle: Klucel (hydroxypropylcellulose) (HPC)
  survivor count: 6 of 10

## N=c1ccn2c(n1)OC1C(O)C(CO)OC12 (stereo unspecified)
T/C endpoint: median tumor weight (est.), dose: 50.0 mg/kg/injection, schedule: Q07DX005 (ip), vehicle: suspension in saline, evaluated on day 30
  T/C: 137 % of control

## COc1cc2cc(c1Cl)N(C)C(=O)CC(OC(=O)CC(C)C)C1(C)OC1C(C)C1CC(O)(NC(=O)O1)C(OC)/C=C/C=C(C)C2 (stereo unspecified)
T/C endpoint: median tumor weight (est.), dose: 9.3 micrograms/kg/injection, schedule: Q07DX005 (ip), vehicle: saline + alcohol, evaluated on day 30
  T/C: 147 % of control [9 of 10 alive]

## CC(=O)OC(C)C1C2=C(C(=O)CC1(C)O)C(=O)c1c(ccc(-c3ccc4c(c3O)C(=O)C3=C(C4=O)C(C(C)OC(C)=O)C(C)(O)CC3=O)c1O)C2=O (stereo unspecified)
T/C endpoint: median tumor weight change, dose: 60.0 mg/kg/injection, schedule: Q01DX001 (ip), vehicle: saline with Tween-80
  survivor count: 4 of 10 on day 32
T/C endpoint: median tumor weight change, dose: 120.0 mg/kg/injection, schedule: Q01DX001 (ip), vehicle: saline with Tween-80
  survivor count: 1 of 10 on day 32

## CSC1SCC2C(=O)N(C)C(C(C)C)C(=O)OCC(NC(=O)c3cnc4ccccc4n3)C(=O)NC(C)C(=O)N(C)C1C(=O)N(C)C(C(C)C)C(=O)OCC(NC(=O)c1cnc3ccccc3n1)C(=O)NC(C)C(=O)N2C (stereo unspecified)
T/C endpoint: mean tumor weight, dose: 30.0 micrograms/kg/injection, schedule: Q07DX005 (ip), vehicle: saline
  survivor count: 4 of 10

## O=c1c(O)c(-c2cc(O)c(O)c(O)c2)oc2cc(O)cc(O)c12
[4]
  survivor count: 6 of 10 on day 29
T/C endpoint: median tumor weight change, dose: 2000.0 mg/kg/injection, schedule: Q01DX001 (ip), vehicle: saline with Tween-80
  survivor count: 0 of 10 on day 29

## CN(N=O)C(N)=O
T/C endpoint: median tumor weight (est.), dose: 6.25 mg/kg/injection, schedule: Q07DX005 (ip), vehicle: suspension in saline, evaluated on day 30
  T/C: 136 % of control
T/C endpoint: median tumor weight (est.), dose: 100.0 mg/kg/injection, schedule: Q07DX005 (ip), vehicle: saline
  survivor count: 0 of 10 on day 30
T/C endpoint: median tumor weight (est.), dose: 100.0 mg/kg/injection, schedule: Q07DX005 (ip), vehicle: suspension in saline
  survivor count: 0 of 10 on day 30
[3]
  survivor count: 0 of 10 on day 35
[2]
  survivor count: 0 of 10 on day 30
T/C endpoint: median tumor weight change, dose: 250.0 mg/kg/injection, schedule: Q01DX001 (ip), vehicle: suspension in saline
  survivor count: 5 of 10 on day 28

## O=P(O)(NCCCl)NCCCl
T/C endpoint: median tumor weight change, dose: 100.0 mg/kg/injection, schedule: Q01DX001 (ip), vehicle: suspension in saline
  survivor count: 4 of 10 on day 37
T/C endpoint: median tumor weight change, dose: 200.0 mg/kg/injection, schedule: Q01DX001 (ip), vehicle: suspension in saline
  survivor count: 0 of 10 on day 37
T/C endpoint: median tumor weight change, dose: 400.0 mg/kg/injection, schedule: Q01DX001 (ip), vehicle: saline
  survivor count: 2 of 10 on day 28
T/C endpoint: median tumor weight change, dose: 400.0 mg/kg/injection, schedule: Q01DX001 (ip), vehicle: suspension in saline
  survivor count: 1 of 10 on day 37

## Cn1c2ccccc2c2ccc3c(c21)C(=O)C=CC3=O
T/C endpoint: median tumor weight change, dose: 125.0 mg/kg/injection, schedule: Q01DX001 (ip), vehicle: saline with Tween-80
  survivor count: 5 of 10 on day 32
T/C endpoint: median tumor weight change, dose: 250.0 mg/kg/injection, schedule: Q01DX001 (ip), vehicle: saline with Tween-80
  survivor count: 3 of 10 on day 32
[5]
  survivor count: 0 of 10 on day 32
[4]
  survivor count: 0 of 10 on day 32

## ClCc1ccc2ccccc2n1
[5]
  survivor count: 0 of 10 on day 32
[4]
  survivor count: 0 of 10 on day 32

## O=C(O)c1ccc(SSc2ccc(C(=O)O)cn2)nc1
T/C endpoint: mean tumor weight, dose: 750.0 mg/kg/injection, schedule: Q07DX007 (ip), vehicle: saline
  survivor count: 4 of 10
T/C endpoint: mean tumor weight, dose: 1000.0 mg/kg/injection, schedule: Q07DX007 (ip), vehicle: saline
  survivor count: 2 of 10

## CC1=C(O)C(=O)[C@@H]2O[C@@H]2C1=O
T/C endpoint: median tumor weight change, dose: 62.5 mg/kg/injection, schedule: Q01DX001 (ip), vehicle: saline
  survivor count: 0 of 10 on day 36
[1]
  survivor count: 0 of 10 on day 36
